The list shows only some results of the screen, not a fair sample: it gathers tests that were run many times, whatever their T/C, doses with no T/C, and many T/C values between a quarter and a half above the control. Further doses and runs are listed elsewhere. T/C gives the treated animals as a percentage of the vehicle group. Some entries give survivors of the animals treated and no T/C: the source files T/C as zero there, which appears to mark a toxic dose or a test without result, not a measured value. Some survivor counts are full or nearly so, which does not show that the dose was tolerated: the source hardly ever lists a survival T/C far under the control, and the zero likely stands for such cases as well. Survivors were counted at the toxicity check, usually on the fifth day, unless a day is given; later deaths do not show. Schedule codes are those of the source, taken here to give the interval after Q, in days (D) or hours (H), and the number of doses after X. Additions like (4×) give the number of equal values in this list. Some entries hold several experiments; their values stand side by side, smallest first. Where survival is the endpoint, this PubChem deposit counts one and a half times the control or more as active, and values a quarter to a half above the control carry no call in these data; other NCI protocols may use other cut-offs. Some T/C values carry the count of animals alive at the toxicity check (mostly the fifth day); where none is given, no animal had died by that day. Where a SMILES comes first, the peptide text is derived from it. [ ]: non-standard residue; d: D form. The star is where a group is joined. Nle = CCCC[CH](N)C(=O)O; Cbz = O=C(OCc1ccccc1)*
Tested on: B6C3F1 mice, B16 melanoma ip, median survival T/C
Assay: NCI In Vivo Anticancer Drug Screen. Data for tumor model B16 Melanoma (intraperitoneal) in B6C3F1 mice
Details: T/C endpoint: median survival time, higher T/C = longer survival
Procedure, shortened: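 Antitumor effect was judged in mice with transplanted tumors by dividing the treated group's survival measure by that of vehicle controls.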

[1] = dose: 8.0 micrograms/kg/injection, schedule: Q01DX009 (ip), vehicle: saline
[2] = dose: 25.0 mg/kg/injection, schedule: Q01DX009 (ip), vehicle: Klucel (hydroxypropylcellulose) (HPC)
[3] = dose: 100.0 mg/kg/injection, schedule: Q01DX009 (ip), vehicle: suspension in saline
[4] = dose: 25.0 mg/kg/injection, schedule: Q01DX009 (ip), vehicle: saline with Tween-80
[5] = dose: 50.0 mg/kg/injection, schedule: Q01DX009 (ip), vehicle: saline with Tween-80
[6] = dose: 100.0 mg/kg/injection, schedule: Q01DX009 (ip), vehicle: saline with Tween-80
[7] = dose: 200.0 mg/kg/injection, schedule: Q01DX009 (ip), vehicle: saline with Tween-80
[8] = dose: 12.5 mg/kg/injection, schedule: Q01DX009 (ip), vehicle: water
[9] = dose: 400.0 mg/kg/injection, schedule: Q01DX009 (ip), vehicle: Klucel (hydroxypropylcellulose) (HPC)
[10] = dose: 50.0 mg/kg/injection, schedule: Q01DX009 (ip), vehicle: Klucel (hydroxypropylcellulose) (HPC)
[11] = dose: 200.0 mg/kg/injection, schedule: Q01DX009 (ip), vehicle: Klucel (hydroxypropylcellulose) (HPC)
[12] = dose: 6.25 mg/kg/injection, schedule: Q01DX009 (ip), vehicle: saline with Tween-80

## C/C=C/c1cc2n(c1)C(=O)c1cc(OC3OC(C)C(NC)C(C)(O)C3O)c(C)c(O)c1NC2O (stereo not drawn)
dose: 1.0 micrograms/kg/injection, schedule: Q01DX009 (ip), vehicle: saline
  T/C: 115, 126, 155, 163 % of control
dose: 2.0 micrograms/kg/injection, schedule: Q01DX009 (ip), vehicle: saline
  T/C: 136, 145, 149, 165 % of control
dose: 4.0 micrograms/kg/injection, schedule: Q01DX009 (ip), vehicle: saline
  T/C: 147 [9 of 10 alive], 163 [8 of 10 alive], 164, 166 % of control
dose: 4.0 micrograms/kg/injection, schedule: Q04DX003 (ip), vehicle: DMSO
  T/C: 125 % of control
[1]
  T/C: 176 % of control
  survivor count: 7 of 10, 10 of 10, 8 of 8
dose: 8.0 micrograms/kg/injection, schedule: Q04DX003 (ip), vehicle: DMSO
  T/C: 143 % of control
dose: 16.0 micrograms/kg/injection, schedule: Q01DX009 (ip), vehicle: saline
  survivor count: 10 of 10 (2×)
dose: 16.0 micrograms/kg/injection, schedule: Q04DX003 (ip), vehicle: DMSO
  T/C: 134 % of control
dose: 32.0 micrograms/kg/injection, schedule: Q01DX009 (ip), vehicle: saline
  survivor count: 5 of 10
dose: 32.0 micrograms/kg/injection, schedule: Q04DX003 (ip), vehicle: DMSO
  T/C: 132 % of control

## CN=C(NC)c1ccc(NC(=O)/C=C\c2ccc(/C=C/C(=O)Nc3ccc(C(=NC)NC)cc3)cc2)cc1
dose: 12.5 mg/kg/injection, schedule: Q01DX009 (ip), vehicle: Klucel (hydroxypropylcellulose) (HPC)
  survivor count: 10 of 10
[2]
  survivor count: 0 of 10

## CCN(CC)CCC(=O)c1ccccc1
[3]
  survivor count: 1 of 10

## COC1=C(OC)C(=O)C(Sc2ccc3ccccc3c2)=CC1=O
[4]
  survivor count: 10 of 10
[5]
  survivor count: 10 of 10
[6]
  survivor count: 6 of 10 and 8 of 10
[7]
  survivor count: 2 of 10

## COc1cccc2c1C(=O)c1c(O)c3c(c(O)c1C2=O)C[C@@](O)(C(=O)CO)C[C@@H]3OC1CC(N(C)C)C(O)C(C)O1 (stereo partly drawn)
dose: 4.0 mg/kg/injection, schedule: Q01DX009 (ip), vehicle: saline
  survivor count: 10 of 10

## Cc1c(C)c2c(c(C)c1OC(=O)CCC(=O)O)CCC(C)(CCCC(C)CCCC(C)CCCC(C)C)O2 (stereo not drawn)
dose: 400.0 mg/kg/injection, schedule: Q01DX009 (ip), vehicle: distilled water + Tween-80 + alcohol
  survivor count: 4 of 9

## O=C(O)C1CC1.[Ag]
[8]
  survivor count: 10 of 10
dose: 25.0 mg/kg/injection, schedule: Q01DX009 (ip), vehicle: water
  survivor count: 0 of 10

## CCCCC(NC(=O)OCc1ccccc1)C(=O)NC(C(=O)O)C(C)C (stereo not drawn) (Cbz-[Nle]-Val-OH; configuration not given here)
[9]
  survivor count: 7 of 10

## CC[C@@]1(O)C(=O)OCc2c1cc1n(c2=O)Cc2cc3cc(O)ccc3nc2-1
dose: 0.1 mg/kg/injection, schedule: Q01DX009 (ip), vehicle: other
  T/C: 129 % of control
dose: 0.19 mg/kg/injection, schedule: Q01DX009 (ip), vehicle: other
  T/C: 145 % of control
dose: 3.0 mg/kg/injection, schedule: Q01DX009 (ip), vehicle: other
  survivor count: 10 of 10
dose: 6.0 mg/kg/injection, schedule: Q01DX009 (ip), vehicle: suspension in saline
  survivor count: 10 of 10

## Cc1cc(Br)c2nsnc2c1[N+](=O)[O-]
dose: 400.0 mg/kg/injection, schedule: Q01DX009 (ip), vehicle: saline with Tween-80
  survivor count: 5 of 10

## COc1c(CNC(=O)CCl)cc2[nH]c(C)cc2c1CNC(=O)CCl
[10]
  T/C: 132 % of control
[11]
  survivor count: 10 of 10
[9]
  survivor count: 5 of 10

## CC(/C=C/C1OC(=O)C=CC1C)=C\C(C)C/C=C/C(C)=C/C(C)C(=O)C(C)C(O)C(C)C/C(C)=C/C(=O)O (stereo not drawn)
dose: 3.2 micrograms/kg/injection, schedule: Q01DX009 (ip), vehicle: saline + alcohol
  T/C: 131 % of control
dose: 6.3 micrograms/kg/injection, schedule: Q01DX009 (ip), vehicle: saline + alcohol
  T/C: 140 % of control
dose: 50.0 micrograms/kg/injection, schedule: Q01DX009 (ip), vehicle: saline + alcohol
  survivor count: 10 of 10
dose: 100.0 micrograms/kg/injection, schedule: Q01DX009 (ip), vehicle: saline + alcohol
  survivor count: 10 of 10
dose: 200.0 micrograms/kg/injection, schedule: Q01DX009 (ip), vehicle: saline + alcohol
  survivor count: 10 of 10

## CC(C)(C)N1CC1CNC(=O)C(=O)NCC1CN1C(C)(C)C (stereo not drawn)
[12]
  T/C: 125 % of control
[4]
  survivor count: 10 of 10

## O=NNc1cnccn1
[8]
  T/C: 132 % of control (2×)
dose: 50.0 mg/kg/injection, schedule: Q01DX009 (ip), vehicle: water
  survivor count: 10 of 10

## C=C(C)CNC1=C(C)C(=O)C2=C(C1=O)[C@H](COC(N)=O)[C@]1(OC)[C@@H]3N[C@@H]3CN21
dose: 1.0 mg/kg/injection, schedule: Q01DX001 (ip), vehicle: distilled water + Tween-80
  T/C: 131 % of control
dose: 2.0 mg/kg/injection, schedule: Q01DX001 (ip), vehicle: distilled water + Tween-80
  T/C: 146 % of control

## C[C@H](N)C(=O)N[C@@H]1[C@H]2C(=C(O)C[C@@H](O)[C@@H]2O)C(=O)O[C@@H]1C
dose: 600.0 mg/kg/injection, schedule: Q01DX009 (ip), vehicle: saline with Tween-80
  T/C: 125 % of control
dose: 2400.0 mg/kg/injection, schedule: Q01DX009 (ip), vehicle: saline with Tween-80
  survivor count: 1 of 10

## CCc1ncnc2cc(OCC3CO3)c(OC)cc12 (stereo not drawn)
dose: 12.5 mg/kg/injection, schedule: Q01DX009 (ip), vehicle: suspension in saline
  T/C: 131 % of control
dose: 25.0 mg/kg/injection, schedule: Q01DX009 (ip), vehicle: suspension in saline
  T/C: 140 % of control
[3]
  survivor count: 9 of 10

## Nc1nnc[se]1
[5]
  T/C: 127 % of control
[6]
  survivor count: 8 of 10 and 10 of 10

## O=[N+]([O-])c1ccc(Sc2ccncn2)c([N+](=O)[O-])c1
[12]
  T/C: 129 % of control [8 of 10 alive]
[7]
  survivor count: 0 of 10

## O=C(Nc1ccc([N+](=O)[O-])cc1)Nc1nccs1
dose: 25.0 mg/kg/injection, schedule: Q01DX009 (ip), vehicle: distilled water + Tween-80
  T/C: 141 % of control
dose: 100.0 mg/kg/injection, schedule: Q01DX009 (ip), vehicle: distilled water + Tween-80
  survivor count: 6 of 10
dose: 200.0 mg/kg/injection, schedule: Q01DX009 (ip), vehicle: distilled water + Tween-80
  survivor count: 0 of 10

## O=C(NNC(=O)c1cccc(C(=O)NNC(=O)c2ccc(Cl)c(Cl)c2)n1)c1ccc(Cl)c(Cl)c1
[2]
  survivor count: 8 of 10
[11]
  survivor count: 8 of 10

## CN(C)CCOc1ccc2c(c1)C/C(=C/c1ncc([N+](=O)[O-])n1C)C2=O
[6]
  survivor count: 10 of 10
[7]
  survivor count: 10 of 10

## Cc1c(-c2ccc(C3CCCCC3)cc2)nc2ccc(F)cc2c1C(=O)O
[2]
  T/C: 125 and 127 % of control
[10]
  T/C: 138, 142, 148 % of control
dose: 100.0 mg/kg/injection, schedule: Q01DX009 (ip), vehicle: Klucel (hydroxypropylcellulose) (HPC)
  T/C: 145 and 149 % of control [9 of 10 alive]
[11]
  T/C: 145 % of control
[9]
  T/C: 131 % of control
